Assay: High-fat diet fed rat study: serum total T3 and T4 levels
Format: in vivo
Conditions: HFD rats, 24 hrs post-dose

CC(C)c1cc(Oc2c(Cl)cc(-n3nc(C#N)c(=O)[nH]c3=O)cc2Cl)n[nH]c1=O [MGL-3196, 2-[3,5-dichloro-4-(5-isopropyl-6-oxo-1,6-dihydropyridazin-3-yloxy)phenyl]-3,5-dioxo-2,3,4,5-tetrahydro[1,2,4]triazine-6-carbonitrile]
effect on serum total T3 levels (MGL-3196 P.O. single dose): did not significantly alter
effect on serum total T4 (MGL-3196 P.O. single dose): dose-dependent decrease

N[C@@H](Cc1cc(I)c(Oc2ccc(O)c(I)c2)c(I)c1)C(=O)O [T3, triiodothyronine]
serum T3 levels (exogenous and endogenous not distinguished) (0.5 mg/kg I.P. single dose): significantly elevated
serum T4 levels (0.5 mg/kg I.P. single dose): significantly reduced
